Reference: patent US12070463B2, “Compositions and methods for the treatment of seizure caused by brain tumor” (Board Of Supervisors Of Louisiana State University And …, priority 2015, dated 2024)
At least one compound was matched to its structure with a doubt left.

System: MIP-2
Experiment: MIP-2 in mice with GBM
Assay type: in vivo
Conditions: compared with vehicle

SMILES: CN(C)c1ccc(O)c2c1C[C@H]1C[C@H]3[C@H](N(C)C)C(O)=C(C(N)=O)C(=O)[C@@]3(O)C(O)=C1C2=O [minocycline]
- increases of MIP-2: higher in those mice treated with vehicle
